Assay results from PubChem BioAssay (NCATS).
Inconclusive means that the source gave no clear call. Such entries were picked first, then a sample of the others. Potencies of inconclusive entries are doubtful fits and often do not repeat. The source made the active and inactive calls. Calls come from the whole dose curve; as a rule, active = well fitted cell-killing curve with a large enough effect; inconclusive = small, poorly fitted or top-dose-only effect, or effect the other way; inactive = no such curve, though single readings can be large or run the other way.
Potency is the fitted concentration of half-maximal effect.

Assay: Quantitative High-Throughput drug screen in 47 multiple myeloma cell lines against the NCATS MIPE library collection: JJN3_DSMZ cell viability assay (AID 1918966; note: nearly all actives have a fitted effect of over 50% in size)
Conditions: JJN3 myeloma cells viability, CellTiter-Glo ATP, 48 h; series mostly up to 45.8 µM
Text: PI: Beverly A. Mock Ph.D.
Laboratory of Cancer Biology and Genetics,
Center for Cancer Research, National Cancer Institute,
National Institute of Health, Bethesda, Maryland
Drug resistance and disease progression are common in multiple myeloma (MM) patients, underscoring the need for new therapeutic combinations. […] We hypothesized that effective combinations would reduce MYC expression and enhance p16 activity. […] These preclinical data identify potentially useful drug combinations for evaluation in drug-resistant MM and reveal potential mechanisms of combined drug sensitivity.
Described herein is the primary MIPE qHTS used to cherrypick compounds. Validated compounds were then further tested for potential synergistic activiy.
[1] Peat TJ, Gaikwad SM, Dubois W, Gyabaah-Kessie N, Zhang S, Gorjifard S, Phyo Z, Andres M, Hughitt VK, Simpson RM, Miller MA, Girvin AT, Taylor A, Williams D, D'Antonio N, Zhang Y, Rajagopalan A, Flietner E, Wilson K, Zhang X, Shinn P, Klumpp-Thomas C, McKnight C, Itkin Z, Chen L, Kazandijian D, Zhang J, Michalowski AM, Simmons JK, Keats J, Thomas CJ, Mock BA. Drug combinations identified by high-throughput screening promote cell cycle transition and upregulate Smad pathways in myeloma. Cancer Lett. 2023 Aug 1;568:216284. doi: 10.1016/j.canlet.2023.216284. Epub 2023 Jun 24. PMID: 37356470; PMCID: PMC10408729.
SEQUENCE No. (e.g., 1, 2, 3, etc.); […] (e.g., Cells, Incubation, Reagent, etc.); VALUE and DESCRIPTION.
1; Cells; 5 uL; white, solid bottom 1536-well Greiner assay plate.
2; Compounds; 23 nL; Kalypsis pin tool (Wako USA) equipped with a 1536-well pin head to transfer to the assay plates.
3; Incubation; 48 hours; 37C incubation.
4; Reagent;5uL; CellTiter Glo (Promega).
5; Detector; 425V; Luminescence; Viewlux PerkinElmer.
NOTES (numbers refer to Sequence numbers above)
1. The cell-based screening methods employed in this study were like those previously published. Briefly, the corresponding myeloma cell lines were screened in 1,536-well plates with 500 cells, 5-uL per well for inhibition of cell viability (assessed by measuring ATP levels with CellTiterGlo).
2. NCATS MIPE 4.0 library of approved and investigational drugs were added using the Kalypsis pin tool. Wells treated with DMSO only for 100% viability and media only wells for 0% viability were used as controls.
3. The assay plates were covered and incubated for 48 hours in a 37C, 5% CO2 incubator with controlled humidity.
4. After 48 hours, CellTilter-GloTM luminescent substrate mix (Promega) reagent was added to the assay plate and plates we incubated for 5 min at room temperature.
5. Signal was measured as median relative luminescence units on a ViewLux (PerkinElmer) multiplate reader.
[1] Heske CM, Davis MI, Baumgart JT, Wilson K, Gormally MV, Chen L, Zhang X, Ceribelli M, Duveau DY, Guha R, Ferrer M, Arnaldez FI, Ji J, Tran HL, Zhang Y, Mendoza A, Helman LJ, Thomas CJ. Matrix Screen Identifies Synergistic Combination of PARP Inhibitors and Nicotinamide Phosphoribosyltransferase (NAMPT) Inhibitors in Ewing Sarcoma. Clin Cancer Res. 2017 Dec 1;23(23):7301-7311. doi: 10.1158/1078-0432.CCR-17-1121. Epub 2017 Sep 12. PMID: 28899971; PMCID: PMC6636827.
For `CN(C)CCN(C)C(=O)c1ccc(NC(=O)Nc2ccc(-c3nc(N4CCOCC4)c4ccn(CC(F)(F)F)c4n3)cc2)cc1`, the Potency was active: 0.0372 µM. In the case of `CC1(C)C(N(O)C(=O)Nc2ccc(Cl)cc2)N(c2ccc(Cl)cc2)C(=O)N1CC(=O)NN=CC=Cc1ccc([N+](=O)[O-])o1` (stereo not given), the Potency is reported as active: 4.18 µM. For `Cc1cc(SCc2sc(-c3ccc(C(F)(F)F)cc3)nc2C)ccc1OCC(=O)O`, the Potency was inconclusive: 20.9 µM [cytotoxic, partial curve, poor fit]. With `CC1(C)[C@H]2CC[C@]3(C)[C@@H](C(=O)C=C4[C@@H]5C[C@@](C)(C(=O)O)CC[C@]5(C)CC[C@]43C)[C@@]2(C)CC[C@@H]1O` the Potency was inconclusive: 37.2 µM [cytotoxic, single point]. With `CCCc1nc(C)c2c(=O)[nH]c(-c3cc(S(=O)(=O)N4CCN(CC)CC4)ccc3OCC)nn12` the Potency was active: 4.18 µM. With `O=C(c1ccc(OCCN2CCCCC2)cc1)c1c(-c2ccc(O)cc2)sc2cc(O)ccc12` the Potency was active: 20.9 µM. For `COc1ccc(-n2nc(C(N)=O)c3c2C(=O)N(c2ccc(N4CCCCC4=O)cc2)CC3)cc1`, the Potency was inconclusive: 0.0021 µM [rising, full curve, poor fit]. With `COc1ccccc1OCC(O)COC(N)=O` (stereo not given) the Potency was inconclusive: 0.0372 µM [rising, full curve, poor fit]. For `Cc1cc([C@@H](C)Nc2ccccc2C(=O)O)c2nc(N3CCOCC3)cc(=O)n2c1`, the Potency was inconclusive: 34 µM [cytotoxic, partial curve]. With `CCOc1cc(N2CCC(O)CC2)ccc1Nc1ncc2c(n1)N(C)c1ccccc1C(=O)N2C` the Potency was inconclusive: 10.5 µM [cytotoxic, partial curve, poor fit]. For `CC(=CC(=O)Nc1ccccc1C(=O)O)c1ccc2ccccc2c1`, the Potency was inconclusive: 8.33 µM [cytotoxic, partial curve, poor fit]. In the case of `C#C[C@]1(O)CC[C@@H]2[C@@H]3CCc4cc(O)ccc4[C@H]3CC[C@@]21C`, the Potency is reported as inconclusive: 11.8 µM [cytotoxic, partial curve, poor fit]. With `CC[C@@H]1C(=O)N(C)c2cnc(Nc3ccc(C(=O)NC4CCN(C)CC4)cc3OC)nc2N1C1CCCC1` the Potency was active: 7.43 µM. For `CC(N[C@H]1CCCC[C@H]1NC(=O)c1ccc(Cl)cc1)c1cccc2ccccc12` (stereo not given in full), the Potency was inconclusive: 20.9 µM [cytotoxic, partial curve, poor fit]. For `Nc1ncn([C@@H]2O[C@H](CO)[C@@H](O)[C@@H]2O)c(=O)n1`, the Potency was active: 11.8 µM. For `CC(C)n1cnc2c(NCCc3ccc(O)cc3)nc(-c3csc4ccccc34)nc21`, the Potency was inconclusive: 33.2 µM [cytotoxic, single point]. In the case of `CC(=O)N1CCN(c2ccc(OCc3nn(C)c(C)c3-c3cccc4c(CCCOc5cccc6ccccc56)c(C(=O)O)n(Cc5cccnc5)c34)cc2)CC1`, the Potency is reported as inconclusive: 0.0264 µM [cytotoxic, full curve, poor fit]. In the case of `Nc1ncnc2c1ncn2[C@@H]1O[C@H](CO)[C@@H](O)[C@@H]1O`, the Potency is reported as inconclusive: 10.5 µM [cytotoxic, partial curve, poor fit]. With `OC(Cn1cncn1)(Cn1cncn1)c1ccc(F)cc1F` the Potency was inconclusive: 5.9 µM [cytotoxic, full curve, poor fit]. In the case of `CCn1cc(C(=O)O)c(=O)c2cc(F)c(N3CCN(C)CC3)cc21`, the Potency is reported as inconclusive: 0.59 µM [cytotoxic, partial curve, poor fit]. For `CC1C(=O)OC2C(O)C34C5CC(C(C)(C)C)C36C(OC(=O)C6O)OC4(C(=O)O5)C12O` (stereo not given), the Potency was “inactive”. For `CC(C)(C)NC(=O)[C@H]1CC[C@H]2[C@@H]3CC[C@H]4NC(=O)C=C[C@]4(C)[C@H]3CC[C@]12C`, the Potency was inconclusive: 8.33 µM [cytotoxic, full curve, poor fit]. For `Clc1ccc2c(c1)C(N1CCNCC1)=Nc1ccccc1O2`, the Potency was inconclusive: 16.6 µM [cytotoxic, partial curve, poor fit]. In the case of `CCN1CCN(Cc2ccc(-c3cc4c(N[C@H](C)c5ccccc5)ncnc4[nH]3)cc2)CC1`, the Potency is reported as inconclusive: 20.9 µM [cytotoxic, partial curve, poor fit]. In the case of `Cc1ccc(C(=O)Nc2cccc(C(F)(F)F)c2)cc1-c1ccc2nc(NCCN3CCOCC3)ncc2c1`, the Potency is reported as active: 16.6 µM. In the case of `CCC(C)(C)C(=O)O[C@H]1C[C@@H](C)C=C2C=C[C@H](C)[C@H](CC[C@@H]3C[C@@H](O)CC(=O)O3)[C@H]21`, the Potency is reported as inconclusive: 0.0083 µM [rising, full curve, poor fit]. With `CC1=C(CC(=O)O)c2cc(F)ccc2C1=Cc1ccc(S(C)=O)cc1` (stereo not given) the Potency was active: 10.5 µM. In the case of `CCCCc1nc2cc(C=CC(=O)NO)ccc2n1CCN(CC)CC`, the Potency is reported as active: 0.743 µM. For `O=S(=O)(O)c1ccc2cc(N=Nc3cc(S(=O)(=O)O)c4cccnc4c3O)ccc2c1`, the Potency was active: 18.7 µM. With `C[C@@H](c1ncncc1F)[C@](O)(Cn1cncn1)c1ccc(F)cc1F` the Potency was inconclusive: 20.9 µM [cytotoxic, partial curve, poor fit]. For `COC(=O)[C@@H]1CC2=CC(=O)CC[C@]2(C)[C@@]23O[C@@H]2C[C@@]2(C)[C@H](CC[C@@]24CCC(=O)O4)[C@@H]13`, the Potency was inconclusive: 0.0012 µM [rising, full curve, poor fit]. With `Clc1ccc(Nc2nnc(Cc3ccncc3)c3ccccc23)cc1` the Potency was inconclusive: 0.264 µM [cytotoxic, full curve, poor fit]. For `CC1(C)O[C@@H]2C[C@@H]3[C@H]4C[C@@H](F)C5=CC(=O)C=C[C@]5(C)[C@@]4(F)[C@@H](O)C[C@]3(C)[C@]2(C(=O)CO)O1`, the Potency was “inactive”. With `OCC(O)C(O)C(O)CO` (stereo not given) the Potency was active: 2.96 µM. For `COc1c(C)c2c(c(O)c1CC=C(C)CCC(=O)O)C(=O)OC2`, the Potency was active: 4.69 µM. With `CC(C)c1nn(-c2c(Cl)cccc2Cl)c2nc(Cc3ccc(OCCO)cc3)[nH]c(=O)c12` the Potency was active: 0.0833 µM. For `COc1cc2nc(-c3cc(F)ccc3O)nc(N[C@@H]3CNC[C@@H]3C(C)(C)O)c2cc1OC`, the Potency was active: 11.8 µM. For `Cc1ccc(C(N)=O)cc1Nc1nccc(-c2cn(C(C)C)c3cnccc23)n1`, the Potency was active: 4.69 µM. With `Cc1nc2cnc3ccc(C#Cc4cccnc4)cc3c2n1-c1ccc(C(C)(C)C#N)cc1` the Potency was active: 0.935 µM. In the case of `CS(=O)(=O)c1ccc(C(=O)Nc2ccc(Cl)c(-c3ccccn3)c2)c(Cl)c1`, the Potency is reported as “inactive”.
